# PubChem BioAssay AID1259424 – University of Nebraska Medical Center | 2018
# Screen: 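Rank knockdowns across the genome by resemblance to the KSR1 depletion profile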 (primary screen)
# System: human HCT116 colon cancer cells
# Knock-down reagent: siRNA pool against human genes, 50 nM
# Read-out: 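Six signature mRNAs by branched-DNA multiplex assay, scaled to two housekeeping genes and non-targeting median, log2; matched to mean KSR1 knockdown profile by Pearson correlation and euclidean distance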
# Scale: mean correlation with KSR1 profile and KSR1 correlation: higher = expression change more like KSR1 knockdown; mean distance from KSR1 profile: higher = expression change less like KSR1 knockdown
# Shown is an unselected part of about 14,000 deposited reagents. 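Higher correlation or smaller distance means closer resemblance to KSR1 loss; control wells, including KSR1 knockdowns, recur on many plates.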 The record does not give: the time to read-out.
Gene,mean correlation with KSR1 profile,mean distance from KSR1 profile,"KSR1 correlation, replicate 1","KSR1 correlation, replicate 2","KSR1 correlation, replicate 3"
GP1BB,0.532,2.03,0.524,0.532,0.476
PCDHB4,0.667,2.15,0.497,0.619,0.726
LZTS3,0.263,1.65,0.306,-0.16,0.595
SHH,0.171,3.01,0.492,-0.242,0.266
PDLIM7,0.245,1.39,0.317,0.366,0.217
USP19,-0.318,1.74,-0.122,-0.428,-0.563
FAM167A,0.781,0.969,0.542,0.714,0.843
ASB13,0.724,1.53,0.621,0.743,0.644
TIPARP,0.672,0.964,0.482,0.423,0.685
GALR1,0.283,1.67,-0.0294,0.279,0.465
REX1BD,0.44,1.43,0.349,0.378,0.436
MMEL1,0.692,1.19,0.779,0.498,0.331
CUTC,-0.0669,1.96,-0.207,-0.18,0.388
FNTB,0.496,2.28,0.22,0.459,0.352
RPA1,-0.709,2.44,-0.427,-0.788,-0.599
ZBTB14,0.432,1.26,0.661,0.789,-0.0658
TP53INP2,-0.835,3.67,-0.746,-0.676,-0.751
IKZF3,-0.0312,2.74,0.149,0.0766,-0.0447
PITPNA,-0.241,2.08,-0.431,-0.444,-0.127
RTN1,-0.301,2.42,-0.28,-0.384,-0.0564
ABCD1,-0.328,1.92,-0.359,-0.334,-0.223
FTH1,0.139,1.56,0.227,0.208,0.216

5 neighbouring entries already listed, for reference:
Gene,mean correlation with KSR1 profile,mean distance from KSR1 profile,"KSR1 correlation, replicate 1","KSR1 correlation, replicate 2","KSR1 correlation, replicate 3"
SHH,0.171,3.01,0.492,-0.242,0.266
PDLIM7,0.245,1.39,0.317,0.366,0.217
USP19,-0.318,1.74,-0.122,-0.428,-0.563
FAM167A,0.781,0.969,0.542,0.714,0.843
ASB13,0.724,1.53,0.621,0.743,0.644

The results go on:
Gene,mean correlation with KSR1 profile,mean distance from KSR1 profile,"KSR1 correlation, replicate 1","KSR1 correlation, replicate 2","KSR1 correlation, replicate 3"
COX7A2,-0.763,2.44,-0.756,-0.671,-0.631
CASP3,-0.101,2.08,-0.0357,0.141,-0.254
NCOA7,-0.331,2.32,-0.432,-0.744,-0.475
NNAT,-0.215,1.87,0.00144,-0.505,-0.0265
SH2D3C,-0.228,4.13,0.0506,-0.232,-0.512
FGF8,0.596,0.67,0.677,0.373,0.836
LGALS12,0.402,1.3,0.47,0.605,0.332
PTCD1,0.0109,1.31,0.164,-0.169,0.0441
GARS1,0.803,2.11,0.746,0.795,0.828
CENPBD2P,0.0854,0.991,-0.858,-0.318,0.17
MRC1,0.275,1.24,0.46,0.0314,0.328
PAN2,-0.343,1.54,-0.204,-0.557,-0.302
